Data from patent US20250269041A1, “Mutual Prodrugs of Cromoglicic Acid” (Samdolite Pharmaceuticals, Inc., priority 2022, published 2025).
Counter-ions that a name gives are not always drawn. Like-named read-outs stand apart in the source and are kept apart here.

Details: black rat snake (Pantherophis obsoletus), 25 mg/mL
Description: Shed snakeskin, which is a model membrane to human skin used for preliminary permeability studies due to its similarity in composition to the human stratum corneum, was used as a skin model. The solution in the receiver compartment was maintained at 37° C. and stirred at 500 rpm with a magnetic stirrer. Before each experiment, the shed snakeskin was hydrated in 7.4 pH Dulbecco's Phosphate Buffered Saline (DPBS) containing 0.1% sodium azide solution for 24 hours at room temperature.
To emulate the esterase activity of human skin, a “sandwich” of shed snakeskin from a black rat snake (Pantherophis obsoletus) and a dialysis membrane with a molecular weight cut-off of 3.5 kDa (Cole-Palmer, Spectra Por S/P 3 EW-02900-04) was designed. Recombinant Human Carboxylesterase 2/CES2 (R&D Systems, #5657-CE) at a concentration 50 μg/mL was added between the snakeskin and the dialysis membrane (FIG. 1). A diffusion area of 0.64 cm^2 and a volume of 2 mL in the donor and receiver compartments were used. The temperature in Franz cell was controlled via thermocouple probe IT-23 (World Precision Instruments, Sarasota, FL, USA) placed in receiver compartment below the membrane “sandwich” through the sampling arm. All tested compounds were solubilized in 50% polyethylene glycol 400 (PEG 400)/DPBS at 25 mg/mL. PEG 400 was used to increase the water solubility of diethyl cromoglycate, cetirizine ethyl ester and cetirizine cromoglycate.
The system was allowed to equilibrate for one hour before each experiment. […] The receiver compartment was filled with 2 mL of 50% w/w polyethylene glycol 400 in DPBS to maintain a sink condition in the receiver solution. A sample was manually taken at 1-hour intervals from the receptor compartment and replaced with fresh DPBS at each time point. The concentration of drugs and their cumulative amount was plotted against time. Each experiment with each compound was performed in triplicate. The amount of the drug in the sample was estimated spectrophotometrically (NanoDrop™ UV-Visible spectrophotometer, Thermo Fisher Scientific Inc.). Light absorption was plotted as a function of concentration and fitted with a linear regression equation.

Cumulative concentration per unit area (0 h): 0 μg/cm^2
Cumulative concentration per unit area (1 h): 14 μg/cm^2
Cumulative concentration per unit area (2 h): 22 μg/cm^2
Cumulative concentration per unit area (3 h): 35 μg/cm^2
Cumulative concentration per unit area (4 h): 53 μg/cm^2
Cumulative concentration per unit area (5 h): 73 μg/cm^2
Cumulative concentration per unit area (6 h): 94 μg/cm^2
Cumulative concentration per unit area (7 h): 115 μg/cm^2
Cumulative concentration per unit area (8 h): 130 μg/cm^2
Cumulative concentration per unit area (9 h): 163 μg/cm^2
Cumulative concentration per unit area (10 h): 198 μg/cm^2
Cumulative concentration per unit area (11 h): 215 μg/cm^2
Cumulative concentration per unit area (12 h): 234 μg/cm^2
Compound: O=C(O)COCCN1CCN(C(c2ccccc2)c2ccc(Cl)cc2)CC1 (stereo not shown) [Cetirizine Dihydrochloride]
